Measurements reported in PubChem BioAssay AID1159597 (NIAID, 2016)
Test: 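Which TLR pathway components are needed for LPS-driven TNF promoter activity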. Cell system: human THP-1 B5 reporter clone (monocytic leukaemia line), PMA-differentiated to macrophage-like cells. Reagents: single siRNA against human genes. Time to read-out: LPS for 4 h before read-out; assayed 48 to 72 h after siRNA transfection. Challenge: LPS (Salmonella minnesota R595) for 4 h; concentration not given. Measured: 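TNF promoter dual luciferase ratio after 4 h LPS, given as a per-plate robust z-score, mean of replicates per siRNA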. Scale: TNF reporter z-score: higher = stronger TNF promoter activity after LPS. Call rule: In these data the active calls have TNF reporter z-score, replicate mean at about -1.5 or lower, or at about 1.53 or higher. Calls: active = clear shift in reporter, either direction; inactive = little shift in reporter.
This is a random part of 756 reagents. In the full data, 140 (19%) were called active. 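Calls mark clear shifts in either direction, lowered or raised; calls are per siRNA, gene-level medians over six siRNAs not deposited.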 Reagents against one gene are numbered here. The record does not give: the amount of reagent.

EP300 #1 | TNF reporter z-score, replicate mean: -0.695; outcome: inactive
EP300 #2 | TNF reporter z-score, replicate mean: 0.00515; outcome: inactive
EP300 #3 | TNF reporter z-score, replicate mean: 0.609; outcome: inactive
EP300 #4 | TNF reporter z-score, replicate mean: -0.273; outcome: inactive
EP300 #5 | TNF reporter z-score, replicate mean: 0.404; outcome: inactive
EP300 #6 | TNF reporter z-score, replicate mean: 0.287; outcome: inactive
IKBKG #1 | TNF reporter z-score, replicate mean: -1.91; outcome: active
IKBKG #2 | TNF reporter z-score, replicate mean: -2.95; outcome: active
IKBKG #3 | TNF reporter z-score, replicate mean: 0.14; outcome: inactive
IKBKG #4 | TNF reporter z-score, replicate mean: -0.832; outcome: inactive
IKBKG #5 | TNF reporter z-score, replicate mean: 0.517; outcome: inactive
IKBKG #6 | TNF reporter z-score, replicate mean: -0.28; outcome: inactive
MAPK12 #1 | TNF reporter z-score, replicate mean: -0.268; outcome: inactive
MAPK12 #2 | TNF reporter z-score, replicate mean: -0.0888; outcome: inactive
MAPK12 #3 | TNF reporter z-score, replicate mean: -0.123; outcome: inactive
MAPK12 #4 | TNF reporter z-score, replicate mean: -0.268; outcome: inactive
MAPK12 #5 | TNF reporter z-score, replicate mean: 0.614; outcome: inactive
MAPK12 #6 | TNF reporter z-score, replicate mean: -1.7; outcome: active
TRADD #1 | TNF reporter z-score, replicate mean: -1.72; outcome: active
TRADD #2 | TNF reporter z-score, replicate mean: -0.189; outcome: inactive
TRADD #3 | TNF reporter z-score, replicate mean: 0.488; outcome: inactive
TRADD #4 | TNF reporter z-score, replicate mean: 0.124; outcome: inactive
TRADD #5 | TNF reporter z-score, replicate mean: 1.34; outcome: inactive
TRADD #6 | TNF reporter z-score, replicate mean: -1.15; outcome: inactive
PIK3R1 #1 | TNF reporter z-score, replicate mean: 0.573; outcome: inactive
PIK3R1 #2 | TNF reporter z-score, replicate mean: -0.067; outcome: inactive
PIK3R1 #3 | TNF reporter z-score, replicate mean: 0.778; outcome: inactive
PIK3R1 #4 | TNF reporter z-score, replicate mean: -0.611; outcome: inactive
PIK3R1 #5 | TNF reporter z-score, replicate mean: -1.9; outcome: active
PIK3R1 #6 | TNF reporter z-score, replicate mean: 1.21; outcome: inactive
DAB2IP #1 | TNF reporter z-score, replicate mean: -1.03; outcome: inactive
DAB2IP #2 | TNF reporter z-score, replicate mean: 0.131; outcome: inactive
DAB2IP #3 | TNF reporter z-score, replicate mean: 1.34; outcome: inactive
DAB2IP #4 | TNF reporter z-score, replicate mean: -2.49; outcome: active
DAB2IP #5 | TNF reporter z-score, replicate mean: -0.463; outcome: inactive
DAB2IP #6 | TNF reporter z-score, replicate mean: -2.63; outcome: active
PIK3CA #1 | TNF reporter z-score, replicate mean: 0.405; outcome: inactive
PIK3CA #2 | TNF reporter z-score, replicate mean: -0.212; outcome: inactive
PIK3CA #3 | TNF reporter z-score, replicate mean: 1.44; outcome: inactive
PIK3CA #4 | TNF reporter z-score, replicate mean: -0.217; outcome: inactive
PIK3CA #5 | TNF reporter z-score, replicate mean: -0.985; outcome: inactive
PIK3CA #6 | TNF reporter z-score, replicate mean: 0.44; outcome: inactive
IRF7 #1 | TNF reporter z-score, replicate mean: -0.644; outcome: inactive
IRF7 #2 | TNF reporter z-score, replicate mean: -1.4; outcome: inactive
IRF7 #3 | TNF reporter z-score, replicate mean: 1.03; outcome: inactive
IRF7 #4 | TNF reporter z-score, replicate mean: -0.637; outcome: inactive
IRF7 #5 | TNF reporter z-score, replicate mean: -1.08; outcome: inactive
IRF7 #6 | TNF reporter z-score, replicate mean: 0.124; outcome: inactive
CD14 #1 | TNF reporter z-score, replicate mean: -0.223; outcome: inactive
CD14 #2 | TNF reporter z-score, replicate mean: -1.72; outcome: active
CD14 #3 | TNF reporter z-score, replicate mean: -0.131; outcome: inactive
CD14 #4 | TNF reporter z-score, replicate mean: -0.677; outcome: inactive
CD14 #5 | TNF reporter z-score, replicate mean: 0.872; outcome: inactive
CD14 #6 | TNF reporter z-score, replicate mean: -3.29; outcome: active
CXCL11 #1 | TNF reporter z-score, replicate mean: -2.75; outcome: active
CXCL11 #2 | TNF reporter z-score, replicate mean: -0.026; outcome: inactive
CXCL11 #3 | TNF reporter z-score, replicate mean: 0.265; outcome: inactive
CXCL11 #4 | TNF reporter z-score, replicate mean: -0.46; outcome: inactive
CXCL11 #5 | TNF reporter z-score, replicate mean: -1.55; outcome: active
CXCL11 #6 | TNF reporter z-score, replicate mean: -0.39; outcome: inactive
